Values of other authors as cited in patent US20120130146A1, “CONTINUOUS ADMINISTRATION OF CILENGITIDE IN CANCER TREATMENTS” (Merck Patent GmbH, priority 2009, published 2012).
At least one compound was matched to its structure with a doubt left.

Test system: glioblastoma multiforme
Conditions: radiotherapy and temozolomide, resected patients; cited from earlier work

Q: For `Cn1nnc2c(C(N)=O)ncn2c1=O` [temozolomide, 3,4-dihydro-3-methyl-4-oxoimidazo[5,1-d]-as-tetrazine-8-carboxamide], which “increase of median survival compared to radiotherapy alone” value is on record?
A: 2.5 months

Q: And the median survival?
A: 14.6 months
